Data published in article PMC4297356.

T1: Vipp1–GFP (Synechocystis Vipp1 tagged with green fluorescent protein at the C-terminus) (Synechocystis sp. PCC6803) (UniProt Q55707)
T1 sequence: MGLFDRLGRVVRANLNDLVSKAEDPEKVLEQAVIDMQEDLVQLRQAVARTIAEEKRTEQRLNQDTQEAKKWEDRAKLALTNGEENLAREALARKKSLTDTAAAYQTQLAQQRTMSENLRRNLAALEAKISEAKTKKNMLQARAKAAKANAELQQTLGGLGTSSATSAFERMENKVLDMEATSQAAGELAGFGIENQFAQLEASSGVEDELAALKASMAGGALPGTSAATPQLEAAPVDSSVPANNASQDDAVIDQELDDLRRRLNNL

B1: Asn/Gln-tRNA amidotransferase subunit B (protein, UniProt P74215 1-495)
chain: MTATAVKTDYEAIIGLETHCQLNTASKIFCNCSTDFDSPPNTNVCPVCLGYPGVLPVLNEEVLAAAVKLGLAINGQIAPYSKFDRKQYFYPDLPKNYQISQFDLPIVEHGSLEIELVDKKTKEITRKTIGITRLHMEEDAGKLVHAGSDRLAGSTHSLVDFNRTGVPLLEIVSEPDLRTGQEAAEYAQSLRQLVRYLGISDGNMQEGSLRCDVNISVRPVGQKEFGTKVEIKNMNSFSAIQKAIEYEIERQIKAIADGEEIYQETRLWEEGSQRTISMRKKEGSSDYRYFPEPDLPPLEVSEQQKQTWFATLPELPSAKRARYEQKLGLSAYDARVLTEDRDVALYFEEAVNAGADPKAVANWVTQDIAAYLNNNRLTISGLALKPSALAELIDLITKGTISGKIAKDILPELLEKGGSPQKIIEARGLVQISDPDELTAIIQAVIADHPKELEKFRSGKGNMQGFFVGQVMKRTGGKADPKLTNQLIGKLLAQA
B2: Chaperone protein DnaK3 (protein, UniProt P73098 1-771)
chain: MGKVVGIDLGTTNSVVAVMEGGKPIVIANAEGMRTTPSVVGFNKEGELVVGQMGRRQAVLNPQNTFYGVKRFMGRRYTDLTPESKRVAYTIRRDDRDNIKVRCPRLKKDFAPEEISAMILRKLAEEASRYLGEKVTGAVITVPAYFNDSQRQATRDAGKIAGLEVLRIINEPTAASLAYGLDQGRIQKILVFDLGGGTFDVSVLEVGDGIFEVKATSGDTQLGGNDFDRRIVDWLAEKFLEAEKVDLRQDRQALQRLTEAAEKAKIELSGVGTTEINLPFITATEDGPKHLETQLSRSEFEDLCGDLVTRLQRPVKRVLKDAGLSPVQIDEVVLVGGGTRMPMVKGLVRSFIDREPNENVNPDEVVAIGAAIQAGILDGEVKDILLLDVTPLSFGLETIGGVMKKLLPRNTTIPVRKSDIFSTGENNQTVVEVHVLQGEREMASDNISLGRFKLSGIPPAPRGVPQVQVSFDIDANGILQVTARDKTTGREQSITVQGASILSEGEVNRMIQEAETFAAQDRERRERIEKRNSAKALTDQAQRRLKEVTLDFGSAFTVSYRRQVDALCSEILDSLEKDDERRLDRAQADLQDVLYELNREVRLQYDDKEEGFFEAIKKTFTGDFDDDDDYYNRRPAPRDDYRGGNDYGRYDDYNYNAPSRREAPMPRAGAGRGPSLSKDYRSTAYADWDQSRVTRQRPYQGESLGGTYDDRRSSPQDDYSRGDRQKDYDYRENAPSRSGRGGNGRYGERPAQPGRNAPLQNGWDDDDDDWF
B3: Chaperonin 1 (protein, UniProt Q05972 1-541)
chain: MAKSIIYNDEARRALERGMDILAEAVAVTLGPKGRNVVLEKKFGSPQIINDGITIAKEIELEDHVENTGVSLIRQAASKTNDVAGDGTTTATVLAHAIVKEGLRNVAAGANPISLKRGIDKATDFLVARIKEHAQPVGDSKAIAQVGAISAGNDEEVGQMIANAMDKVGQEGVISLEEGKSMTTELEITEGMRFDKGYISPYFVTDAERMEAVLEDPRILITDKKINLVQDLVPILEQVARQGKPLLIIAEDIEKEALATLVVNRLRGVLNVAAVKAPGFGDRRKQMLEDIATLTGGQVISEDAGLKLESATVDSLGSARRINITKDNTTIVAEGNEAAVKSRCEQIRRQIEETDSSYDKEKLQERLAKLAGGVAVIKVGAATETEMKDRKLRLEDAINATKAAVEEGIVPGGGTTLAHLAPQLEDWATGNLKDEELTGALIVARALPAPLKRIAENAGQNGAVISERVKEKEFNVGYNAASLEYVDMLAAGIVDPAKVTRSALQNAASIAGMVLTTECIVVDKPEKEKAPAGAPGGDFDY
B4: Protein translocase subunit SecA (protein, UniProt Q55709 1-932)
chain: MLKALFGDPNTRKLKKFQPYVAEVNLYEEDIEKLSDDELKYKTVEFREALDKARSDAETEEILDEILPEAFAVVREAGKRVLGMRHFDVQLLGGIILHKGQIAEMKTGEGKTLVATLPSYLNGLTGKGVHVVTVNDYLARRDAEWMGQIHRFLGLTVGLVQSGMNPEERKKNYACDITYTTNSELGFDYLRDNMSTAMIEVVQRPFNFCIIDEVDSILIDEARTPLIISGQVERPTEKYLQASDIAAQLEPEIHYEVDEKQRNVLMTDEGFEKAEQLLQTTDLFDKNDPWAHYIFNAIKAKELFLKDVNYIVRNGEVVIVDEFTGRIMVGRRWSDGLHQAIEAKERVEIQKESQTLATITYQNFFLLYPKLSGMTGTAKTEETELEKVYNLQVTITPTNRPSSRQDWPDVVYKNEEAKWKAVALECEELHQQGRPILVGTTSVEKSEVISRLLQSSGIHHNLLNARPENVERESEIVAQAGRKGAVTIATNMAGRGTDIILGGNSDYMARLKVREYLMPKIVRPEDDELGAGVTGWVSGREKPQGFGNQNGKKKVKTWQVSPDIYPTTISQETEDLLKKAVKFAVDQYGLQSLTELEAEDKLAIASEKGPTDDPVILKLREVYNQIRREYEVLTSAEHKEVVELGGLHVIGTERHESRRVDNQLRGRAGRQGDPGSTRFFLSLEDNLLRIFGGDRVAGLMNMFRVEEDMPIESKMLTGSLEGAQKKVETYYYDIRKQVFEYDEVMNNQRKAIYAERRRVLEGLDLKEQVLVYAEKTMDEIVDAYVNPELPPEEWDVENMLDKAKQFVYLLEDLTVEDLGDMTVWEMKTFFHEEVRKAYDLKETQVDKVRPGLMREAERYFILQQIDNLWREHLQSMEALRESIGLRGYGQKDPLIEYKQEGYEMFLEMMIDIRRNVVYSLFQFQPQQQPQAV
B5: Allophycocyanin alpha chain (protein, UniProt Q01951 1-161)
chain: MSIVTKSIVNADAEARYLSPGELDRIKAFVTGGAARLRIAETLTGSRETIVKQAGDRLFQKRPDIVSPGGNAYGEEMTATCLRDMDYYLRLVTYGVVSGDVTPIEEIGLVGVREMYRSLGTPIEAVAQSVREMKEVASGLMSSDDAAEASAYFDFVIGKMS
B6: Elongation factor G1 (protein, UniProt P28371 1-695)
chain: MEKDLTRYRNIGIFAHVDAGKTTTTERILKLTGRIHKLGEVHEGESTMDFMEQEAERGITIQSAATSCFWKDHQLNVIDTPGHVDFTIEVYRSLKVLDGGIGVFCGSGGVEPQSETNWRYANDSKVARLIYINKLDRTGADFYRVVKQVETVLGAKPLVMTLPIGTENDFVGVVDILTEKAYIWDDSGDPEKYEITDIPADMVDDVATYREMLIETAVEQDDDLMEKYLEGEEISIDDIKRCIRTGTRKLDFFPTYGGSSFKNKGVQLVLDAVVDYLPNPKEVPPQPEVDLEGEETGNYAIVDPEAPLRALAFKIMDDRFGALTFTRIYSGTLSKGDTILNTATGKTERIGRLVEMHADSREEIESAQAGDIVAIVGMKNVQTGHTLCDPKNPATLEPMVFPDPVISIAIKPKKKGMDEKLGMALSKMVQEDPSFQVETDEESGETIIKGMGELHLDIKMDILKRTHGVEVEMGKPQVAYRESITQQVSDTYVHKKQSGGSGQYAKIDYIVEPGEPGSGFQFESKVTGGNVPREYWPAVQKGFDQSVVKGVLAGYPVVDLKVTLTDGGFHPVDSSAIAFEIAAKAGYRQSLPKAKPQILEPIMAVDVFTPEDHMGDVIGDLNRRRGMIKSQETGPMGVRVKADVPLSEMFGYIGDLRTMTSGRGQFSMVFDHYAPCPTNVAEEVIKEAKERQAAA
B7: Light repressed protein A homologue (protein, UniProt P74518 1-191)
chain: MKLLIQGNNITVTEAIHDYVEEKVERAVKHFQNLTTKVDVHLSVARNARITNKHKAEVTVYANGTVIRAQEGSENLYASIDLVADKIARQLRKYKERIQDKQHGNVKTSEIVEDKPVEENLIGDRAPELPSEVLRMKYFAMPPMAIEDALEQLQLVDHDFYMFRNKDTDEINVIYIRNHGGYGVIQPHQAS
B8: Peroxiredoxin (sll1621) (protein, UniProt P73728 1-189)
chain: MTPERVPSVVFKTRVRDESVPGPNPYRWEDKTTEQIFGGKKVVLFSLPGAFTPTCSSNHLPRYEQLFEEFQALGVDDIICLSVNDAFVMFQWGKQIGADKVKLLPDGNGEFTRKMGMLVEKSNLGFGMRSWRYSMFVNDGKIEKMFIEPEFGDNCPVDPFECSDADTMLAYLKGAEAPGVSEPVKAFVG
B9: Thiol-specific antioxidant protein (sll0755) (protein, UniProt Q55624 1-200)
chain: MTEVLRVGQPAPDFTATAIVDQSFQTVKLSTYRGKYLVLFFYPLDFTFVCPTEIIAFSDRHSEFTALDTEVVGISVDSEFSHLAWIQTERKMGGIGNINYPLVSDLKKEISQAYNVLEPDAGIALRGLFIIDREGILQYATVNNLSFGRSVDETLRVLKAIRHVQSHPNEVCPVDWQEGDKTMIPDPEKAKTYFETVAEP
B10: Phytoene dehydrogenase (protein, UniProt P29273 1-472)
chain: MRVVIAGAGLAGLACAKYLADAGFTPVVLERRDVLGGKIAAWKDEDGDWYETGLHIFFGAYPNMLQLFKELDIEDRLQWKEHSMIFNQPEKPGTYSRFDFPDIPAPINGLVAILRNNDMLTWPEKIRFGLGLLPAIVQGQSYVEEMDKYTWSEWMAKQNIPPRIEKEVFIAMSKALNFIDPDEISATILLTALNRFLQEKNGSKMAFLDGAPPERLCQPLVDYITERGGEVHINKPLKEILLNEDGSVKGYLIRGLDGAPDEVITADLYVSAMPVDPLKTMVPAPWREYPEFKQIQGLEGVPVINLHLWFDRKLTDIDHLLFSRSPLLSVYADMSNTCREYSDPDKSMLELVLAPAQDWIGKSDEEIVAATMAEIKQLFPQHFNGDNPARLLKSHVVKTPRSVYKATPGRQACRPDQRTSVPNFYLAGDFTMQKYLGSMEGAVLSGKQCAQAIAADFNPQTVPPTREIVTVG
B11: Argininosuccinate synthase (protein, UniProt P77973 1-400)
chain: MGRAKKVVLAYSGGVDTSVCIPYLMHEWGVEEVITLAADLGQGDELGPIQEKALRCGAVESLVIDGKEEFVKEYAFRSIQANALYENRYPLSTALARPLIAKMLVEAAEKYGADAVAHGCTGKGNDQVRFDISIMALNPNLKVLAPAREWKMSREETIAYGERYGVESPVKKSSPYSIDRNILGRSIEAGPLEDPMTEPTEEIYLMTKAIADTPDEPEYVDIGFEKGIPVSLNGVMLDPVTLVERLNEIAGNHGVGRLDMVENRVVGIKSREIYEAPALLVLIDAHRDLESLTQTADVTHYKNTVEEIYSQLIYRGLWYSPLKEALDAFIVKTQERVTGMVRVKFFKGNANVAGRKSDYSIYDAELATYGMEDQFDHKAAEGFIYIWGLPTKVWAQKMRG
B12: Phosphoglycerate kinase (protein, UniProt P74421 1-401)
chain: MLSKQSIANLTEADLAGKRVFVRVDFNVPLDNGSITDDTRIRAALPTIKDLLSKGAKVILGSHFGRPKGKVVDSMRLTPVGDRLGELLGQPVVKCDDCIGAEVTAKIASLPNGGVALLENLRFHAGEEGNDAEFAKALAANADLYVNDAFGTAHRAHASTEGVTHFLSPNVAGYLIEKELQFLQGAIEAPKRPLVAIVGGSKVSSKIGVIETLLDKCDKLIIGGGMIFTFYKAQGLNTGKSLVEEDKLDLAKSLMAKAKEKGVEFLLPTDVVVADNFAPDANAQTVGVDAIPDGWMGLDIGPDSVKTFQDALAGCGTVIWNGPMGVFEFDKFAVGTEAIACSLAELTASGTVTIIGGGDSVAAVEKVGVAEKMSHISTGGGASLELLEGKVLPGIAALDDR

Biological target: T1, Vipp1–GFP (Synechocystis Vipp1 tagged with green fluorescent protein at the C-terminus) (Synechocystis sp. PCC6803)
Assay: affinity purification with mass spectrometry; anti-GFP microbeads (μMACS column) on lysate of HL-exposed (600 μE m^−2 s^−1) Synechocystis vipp1–gfp cells broken without detergent; bound fraction on 10% SDS-PAGE, bands identified by MS/MS; compared with LL vipp1–gfp and HL wild-type cells

Row | Binder | binding
1 | B1 | binds
2 | B2 | binds
3 | B3 | binds
4 | B4 | binds
5 | B5 | binds
6 | B6 | binds
7 | B7 | binds
8 | B8 | binds
9 | B9 | binds
10 | B10 | binds
11 | B11 | binds
12 | B12 | binds

No constants are given. Whether binding was seen depends on the method and setting. In cells and extracts the contact can be indirect. These calls come from enrichment with a bait or labelling near it, and not all partners need be listed. Sequences can lack the tags named with a protein.
